This note sets out measurements from the supplement of paper PMC12578635.

Some of the results follow. Rule as the data show it: active = 150% or more and inactive = the rest. Single values are uncertain, as repeats are few or missing.

The assay relates to Staphylococcus aureus JE2-lux inside RAW 264.7 macrophages. Kind of assay: intracellular bacterial bioluminescence relative to DMSO vehicle; higher = higher intracellular bacterial metabolic activity. The following applies: 10 µM; treatment time 4 h; gentamicin 50 µg/ml. The method, then:
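RAW 264.7 macrophages infected with bioluminescent MRSA JE2-lux (MOI 100) were dispensed into 384-well plates with 10 µM compound in the presence of 50 µg/ml gentamicin. After 4 h at 37 °C, bacterial bioluminescence (a proxy for intracellular bacterial metabolic activity) and host cell viability (CellTiter-Fluor) were read and normalised to 0.1% DMSO vehicle controls. Single-pass screen of the UNC CICBDD kinase-targeted library (>4,700 compounds).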
For the compound `COc1cc(NS(=O)(=O)c2ccc(NC(=O)c3ccc(Cl)cc3Cl)cc2)ncn1`, the intracellular bacterial bioluminescence was inactive: 96.6%.

For `COc1ccc(-n2cnc3c(C)nc(-n4nc(C)cc4C)nc32)cc1`, the intracellular bacterial bioluminescence was inactive: 42%.

For `COc1ccccc1OCC(=O)Nn1cnc2c(cnn2-c2ccc(C)cc2)c1=O`, the intracellular bacterial bioluminescence is inactive: 112%.

Consider `COCCCN1CCn2c(nc3cc(NC(=O)c4ccccc4OC)ccc32)C1`, for which the intracellular bacterial bioluminescence was inactive: 117%.

Regarding `COc1cccc(C(=O)OCn2nnc3ccccc3c2=O)c1OC`, the intracellular bacterial bioluminescence was inactive: 84.6%.

`O=C(O)CC1SC(Nc2ccc(O)cc2)=NC1=O` (stereo not given): the intracellular bacterial bioluminescence is inactive: 100%.

As to `CSc1nnc(C)c(=O)n1COC(=O)/C=C/c1ccc2c(c1)OCO2`, the intracellular bacterial bioluminescence was inactive: 76.1%.

On to `Cc1cc(OC(=O)c2ccc(S(=O)(=O)N3CCOCC3)cc2)c([N+](=O)[O-])c(=O)[nH]1`, for which the intracellular bacterial bioluminescence is inactive: 111%.

Turning to `CCCc1cc(C(=O)N2CCCC2c2cccs2)no1` (stereo not given), the intracellular bacterial bioluminescence is inactive: 114%.

As for `COc1ccc(Cl)cc1NC(=O)C(C)n1nc(-c2cc(C)oc2C)cc(N)c1=O` (stereo not given), the intracellular bacterial bioluminescence is inactive: 78.1%.

For `CCc1nnc(NC(=O)CSc2ncnc3c2cnn3-c2ccc(Cl)cc2)s1`, the intracellular bacterial bioluminescence is inactive: 112%.

For the compound `Cc1ccc(NC(=O)Cn2nnc(-c3c[nH]c4ccccc34)n2)c(C)c1`, the intracellular bacterial bioluminescence was inactive: 104%.

Turning to `O=C(Nc1ccc(Br)cc1)C1CCN(C(=O)NCc2ccccc2)CC1`, the intracellular bacterial bioluminescence was inactive: 49%.

As for `Cc1ccc(C)c(N(C(=O)c2csnn2)C(C(=O)NC2CCCCC2)c2ccccn2)c1` (stereo not given), the intracellular bacterial bioluminescence was inactive: 71.3%.

Consider `COC(=O)c1ccc(CSc2nc3c(c(=O)n2-c2ccccc2)SCC3)o1`, for which the intracellular bacterial bioluminescence was inactive: 38.3%.

For the compound `Cn1c(=O)c2c(nc(Br)n2CC(=O)c2ccccc2)n(C)c1=O`, the intracellular bacterial bioluminescence is inactive: 96%.

On to `O=c1[nH]c2ccccc2n1CCCOc1ccc(Cl)cc1`, for which the intracellular bacterial bioluminescence is inactive: 67.8%.

For `CN1CCOc2ccc(NC(=O)CN3C(=O)c4ccccc4C3=O)cc2C1=O`, the intracellular bacterial bioluminescence is inactive: 75.7%.

`CC1=NN(c2ccccc2)C(=N)/C1=N\Nc1cccnc1`: the intracellular bacterial bioluminescence was inactive: 80.9%.

For the compound `Cc1cc2ccccc2n2c(=O)n(CCNC(=O)C3CC(=O)N(C)C3)nc12` (stereo not given), the intracellular bacterial bioluminescence was inactive: 103%.

For the compound `O=C(Nc1ccc(Cl)cc1)c1ccc(-c2nc3ccccc3s2)s1`, the intracellular bacterial bioluminescence is inactive: 128%.

For the compound `COc1ccc(-c2nnc3n2N=C(c2cccc([N+](=O)[O-])c2)CS3)cc1`, the intracellular bacterial bioluminescence was inactive: 103%.

In the case of `Cc1cc(Cl)ccc1Nc1nc(N)c(C(=O)c2c[nH]c3ccccc23)s1`, the intracellular bacterial bioluminescence is inactive: 49.7%.

As for `Cc1ccc(CNC(=O)c2ccc(Cn3c(=O)[nH]c4ccsc4c3=O)cc2)cc1`, the intracellular bacterial bioluminescence was inactive: 88%.

For the compound `Cc1cc(NC(=O)CN2CC3CC(C2)c2cccc(=O)n2C3)nc2c1c(=O)oc1ccccc12` (stereo not given), the intracellular bacterial bioluminescence was inactive: 96.7%.

As for `COc1ccc(C2CC(=O)c3cnc(NC4OC(=O)c5ccccc54)nc3C2)cc1OC` (stereo not given), the intracellular bacterial bioluminescence was inactive: 134%.

`CCOC(=O)c1c(NC(=S)Nc2c(C)n(C)n(-c3ccccc3)c2=O)sc2c1CCCC2`: the intracellular bacterial bioluminescence was inactive: 86%.

On to `O=C(Nc1cccc(F)c1)c1cccc(-c2ccc(N3CCCCC3)nn2)c1`, for which the intracellular bacterial bioluminescence is inactive: 103%.

As to `O=C(c1ccc(S(=O)(=O)N2CCCCC2)cc1)N1CCN=C1SCc1ccc([N+](=O)[O-])cc1`, the intracellular bacterial bioluminescence was inactive: 41.2%.

Regarding `COc1ccc(NC(=O)Cn2cc(C(=O)c3ccc(F)cc3)c(=O)c3ccccc32)c(OC)c1`, the intracellular bacterial bioluminescence is inactive: 87.4%.

Consider `COc1cccc2sc(Nc3nc4c(F)cc(F)cc4s3)nc12`, for which the intracellular bacterial bioluminescence was inactive: 76%.

On to `C=CCNC(=O)c1sc2nc3c(C)cccc3cc2c1N`, for which the intracellular bacterial bioluminescence was inactive: 78.6%.

In the case of `Cc1cccc(NC(=O)c2sc3nc(-c4ccc(F)cc4)cn3c2C)c1C`, the intracellular bacterial bioluminescence is inactive: 100%.

`Cc1nnc2ccc(-n3ncc4c3NC(=O)CC4c3ccc(OCc4ccc(F)cc4)cc3)nn12` (stereo not given): the intracellular bacterial bioluminescence is inactive: 94.5%.

In the case of `Cc1ccc(NC(=O)CN2C(=O)/C(=C\c3cccs3)SC2=S)cc1C`, the intracellular bacterial bioluminescence was inactive: 122%.

With `CC12CC(NC(=O)N1c1cccc(F)c1)c1cc([N+](=O)[O-])ccc1O2` (stereo not given), the intracellular bacterial bioluminescence was inactive: 16.6%.

Turning to `COc1ccc(OC)c(NC(=O)CSc2nc3ccccc3c(=O)n2C)c1`, the intracellular bacterial bioluminescence was inactive: 62.8%.

Turning to `Cc1nn(-c2ccc3nncn3n2)c(C)c1Sc1nnc(N)s1`, the intracellular bacterial bioluminescence is inactive: 93.1%.

In the case of `O=C(CSc1nc(=O)n2ccccc2n1)N1CCc2ccccc21`, the intracellular bacterial bioluminescence is inactive: 58.3%.

With `Cc1[nH]c2nc(CNc3ccccc3F)nn2c(=O)c1Cc1ccccc1`, the intracellular bacterial bioluminescence is inactive: 86.3%.

As for `CCN(C(=O)c1cccs1)c1nc2c(s1)CCc1occc1-2`, the intracellular bacterial bioluminescence is inactive: 89.4%.

Take `O=C(O)CCCCCN1C(=O)/C(=C/c2c(NCc3ccco3)nc3ccccn3c2=O)SC1=S`: the intracellular bacterial bioluminescence was inactive: 78.2%.

With `O=C(NCCCN1CCCC1=O)c1ncoc1-c1ccc(F)cc1`, the intracellular bacterial bioluminescence is inactive: 75.9%.

As to `O=C(NCC1COC2(CCCCC2)O1)Nc1ccc(Cl)cc1` (stereo not given), the intracellular bacterial bioluminescence is inactive: 104%.

Take `CCOc1ccc(-c2cc(C(=O)Nc3cc(C)on3)no2)cc1`: the intracellular bacterial bioluminescence was inactive: 99.3%.

On to `CC(=O)Nc1ccc(Nc2nc3c(S(=O)(=O)c4cc(C)ccc4C)nnn3c3ccsc23)cc1`, for which the intracellular bacterial bioluminescence is inactive: 94.6%.

Take `COc1cc(C(=O)Oc2coc(CSc3nc(C)cc(C)n3)cc2=O)c([N+](=O)[O-])cc1OC`: the intracellular bacterial bioluminescence was inactive: 115%.

As to `Cc1cccc(OCCCN2C(=O)C(=O)c3cc(Br)cc(C)c32)c1`, the intracellular bacterial bioluminescence is inactive: 107%.

For `O=C1NC(=O)c2cc(S(=O)(=O)N(CCO)CCO)cc3cccc1c23`, the intracellular bacterial bioluminescence was inactive: 103%.

For the compound `CC(C)N1CCn2c(nc3cc(NS(C)(=O)=O)ccc32)C1`, the intracellular bacterial bioluminescence is inactive: 103%.

As for `COc1cc(/C=N/n2cnnc2)ccc1OC(=O)c1ccncc1`, the intracellular bacterial bioluminescence was inactive: 135%.

Take `CC(=O)c1cccc(NC(=O)CSc2nc(=O)n(N3CCN(C)CC3)c3c2CCCC3)c1`: the intracellular bacterial bioluminescence is inactive: 85.8%.

Regarding `N#Cc1c(NC(=O)c2nc3ccccc3s2)sc2c1CCN(Cc1ccccc1)C2`, the intracellular bacterial bioluminescence was inactive: 91%.

For `CC(=O)c1[nH]c(C)c(C(=O)NCCn2nc3c(C)cc4ccc(C)cc4n3c2=O)c1C`, the intracellular bacterial bioluminescence is inactive: 144%.

As for `O=C(CSc1nnc2[nH]c(=O)ccn12)Nc1ccc(Br)cc1`, the intracellular bacterial bioluminescence is inactive: 107%.

Take `O=C(CSc1ncnc2c1oc1ccccc12)Nc1ccc([N+](=O)[O-])cc1`: the intracellular bacterial bioluminescence was inactive: 108%.

Turning to `O=C(COC(=O)c1cc(O)nc2ccccc12)c1ccc(Cl)cc1`, the intracellular bacterial bioluminescence was inactive: 102%.

Consider `O=C1c2ccncc2C(=O)N1CNc1ccc(Br)cc1`, for which the intracellular bacterial bioluminescence is inactive: 96.2%.

With `CCCCC(=O)N1CCN(c2nn3c(NC(C)(C)C)c(-c4cccc(C)c4)nc3s2)CC1`, the intracellular bacterial bioluminescence was inactive: 104%.

For the compound `COc1ccc2cc(CN(C)Cc3n[nH]c4c3CCCC4)c(OC)nc2c1`, the intracellular bacterial bioluminescence was inactive: 71%.

Turning to `Cc1ccc(CNC(=O)c2cnc3c(c(C)nn3-c3ccccc3)c2NCc2ccc(Cl)cc2)o1`, the intracellular bacterial bioluminescence is inactive: 77.5%.

Turning to `CCC(=O)Nc1nc(-c2ccc3c(c2)OCCO3)cs1`, the intracellular bacterial bioluminescence is inactive: 98%.

Turning to `O=C(CN1C(=O)CC(c2ccccc2)Sc2ccccc21)Nc1ccc(F)cc1F` (stereo not given), the intracellular bacterial bioluminescence was inactive: 65.6%.

For `CCc1nc(-c2csc(S(=O)(=O)N3CCC(C(=O)N4CCc5ccccc5C4)CC3)c2)no1`, the intracellular bacterial bioluminescence was inactive: 65%.

Regarding `O=C(OCn1nnc2ccccc2c1=O)c1cccs1`, the intracellular bacterial bioluminescence is inactive: 89.2%.

On to `COc1ccc(CC(=O)N2CCC(c3nnc(C(=O)Nc4ccccc4C)s3)CC2)cc1OC`, for which the intracellular bacterial bioluminescence is inactive: 50.5%.

Consider `O=C(CSc1nc(-c2ccccc2Cl)ns1)Nc1nccs1`, for which the intracellular bacterial bioluminescence was inactive: 52.9%.

`O=C(/C=C/c1ccc2c(c1)OCO2)NCCc1csc2nc(-c3ccc(F)cc3)nn12`: the intracellular bacterial bioluminescence was inactive: 75.8%.

Take `COc1cccc(C2C3=C(CCCC3=O)Nc3nc(SC(C)C)[nH]c(=O)c32)c1` (stereo not given): the intracellular bacterial bioluminescence is inactive: 108%.

Consider `CCOc1ccc(NC(=O)CN2C(=O)C(c3ccc(OC)cc3)=NC23CCCCC3)cc1`, for which the intracellular bacterial bioluminescence was inactive: 56%.

For the compound `N#Cc1ccc(CSc2ncccc2C(=O)O)cc1`, the intracellular bacterial bioluminescence is inactive: 116%.

For the compound `COc1ccc(CCn2c(C)c(C)n3c4c(=O)n(CC(N)=O)c(=O)n(C)c4nc23)cc1OC`, the intracellular bacterial bioluminescence is inactive: 124%.

Consider `Cc1ccc(NC(=O)CSCC(=O)NCC2OCCc3ccccc32)cc1C` (stereo not given), for which the intracellular bacterial bioluminescence is inactive: 78.1%.

Take `Cc1ccc(-c2nc(CCNC(=O)CCc3cc(Cl)no3)n[nH]2)cc1`: the intracellular bacterial bioluminescence was inactive: 115%.

For the compound `COc1cc(OC)c(NC(=O)C(C)Sc2nnc(-c3ccncc3)o2)cc1Cl` (stereo not given), the intracellular bacterial bioluminescence is inactive: 84.7%.

For the compound `N#Cc1c(N)nc(SCc2ccccc2)c(C#N)c1C1CCCCC1`, the intracellular bacterial bioluminescence was inactive: 34%.

For the compound `CC1=C(C(=O)OCc2ccccc2)C(c2cccc(Br)c2)NC(=S)N1` (stereo not given), the intracellular bacterial bioluminescence is inactive: 55.9%.

Consider `Cc1cccc(C)c1NC(=O)C(C)n1cnc2onc(-c3ccc(Cl)cc3)c2c1=O` (stereo not given), for which the intracellular bacterial bioluminescence was inactive: 126%.

`CC(=O)Nc1ccc2c(=O)cc(-c3ccccc3F)oc2c1`: the intracellular bacterial bioluminescence is inactive: 149%.

For `Cc1ccc(-c2nc3n(CC(=O)Nc4ccc(Br)cc4)c4c(c(=O)n3n2)CCC4)cc1`, the intracellular bacterial bioluminescence was inactive: 80.9%.

As to `O=C(CSc1nc(=O)n2cc(Cl)ccc2n1)NC1CCCCC1`, the intracellular bacterial bioluminescence is inactive: 57.1%.

Regarding `O=C(COc1ccc2ccccc2c1)NCC1COC2(CCCC2)O1` (stereo not given), the intracellular bacterial bioluminescence is inactive: 65.6%.

As for `Cc1c(C(=O)NC(c2ccccc2)c2cccnc2)[nH]c2ccccc12` (stereo not given), the intracellular bacterial bioluminescence was inactive: 98.2%.

For `O=C(NCCC1=CCCCC1)C(=O)Nc1ccc(F)c(F)c1`, the intracellular bacterial bioluminescence is inactive: 109%.

In the case of `Cc1cc(=O)[nH]c2ccc(S(=O)(=O)Nc3ccc(Br)cc3)cc12`, the intracellular bacterial bioluminescence was inactive: 95.9%.

In the case of `Cc1cc(F)ccc1S(=O)(=O)Oc1ccc2oc3ccccc3c2c1`, the intracellular bacterial bioluminescence is inactive: 106%.

Take `O=c1n(Cn2nnc3ccccc32)nc(C(F)(F)F)c2cccn12`: the intracellular bacterial bioluminescence was inactive: 123%.

Turning to `Cc1cc(C)n2nc(C(=O)NCc3ccc(N4CCCC4=O)cc3)cc2n1`, the intracellular bacterial bioluminescence is inactive: 130%.

Take `CC(=O)c1ccc(Nc2nc3c(S(=O)(=O)c4ccccc4)nnn3c3ccc(Cl)cc23)cc1`: the intracellular bacterial bioluminescence is inactive: 96.3%.

Take `Cc1cc(C)c(NS(=O)(=O)c2ccc3c4c(cccc24)C(=O)N3)c(C)c1`: the intracellular bacterial bioluminescence is inactive: 81.3%.
